According to PubChem BioAssay AID1794845 (National Center for Advancing Translational Sciences (NCATS), 2023):
Fewer than 10 of roughly 6,900 compounds were called active. The call rests on the fitted dose curve; in most records, active means well fitted curve in the direction sought with a large enough effect; inconclusive means small, poorly fitted or top-dose-only effect, or another doubt; inactive means no such curve, though single readings can be large or run the other way. This is one part of the list.

The chains behind the UniProt entries cited, without tags or fusion partners. Where a name states a change or a piece, a line headed by the entry shows the natural chain unless it says otherwise.
UniProt C7C422: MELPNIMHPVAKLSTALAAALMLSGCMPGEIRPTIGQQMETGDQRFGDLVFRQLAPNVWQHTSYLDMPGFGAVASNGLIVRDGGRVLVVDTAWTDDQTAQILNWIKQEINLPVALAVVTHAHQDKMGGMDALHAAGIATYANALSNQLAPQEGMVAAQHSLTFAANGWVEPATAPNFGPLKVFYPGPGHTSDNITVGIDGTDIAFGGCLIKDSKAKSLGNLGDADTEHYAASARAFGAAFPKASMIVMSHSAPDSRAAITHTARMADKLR

Each compound was assayed against Metallo-beta-lactamase type 2 (Klebsiella pneumoniae) (UniProt C7C422) (assay: qHTS to identify inhibitors of the New Delhi Metallo-beta-lactamase (NDM): primary screen against the NCATS Gemini Collection). Conditions: NDM-1 enzyme, meropenem hydrolysis, absorbance 300 nm; at 38.4 µM (top of the series) unless noted.
Method in brief: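 NDM-1 at 2 nM final in 50 mM HEPES pH 7.0, 1 uM ZnSO4, 0.01% Tween20, preincubated >30 min with compound. Meropenem 50 uM final added; absorbance at 300 nm after 30 min.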
Further: % of control where 0% means no effect.

Activity % (negative = inhibition), inactive:
CCn1ccc(C(=O)N2CCCC(CO)CCNC(=O)CC2)n1 (stereo unspecified) 23.3%, COc1cc(OC)cc(C(=O)N[C@@H]2COCC[C@@H]2Oc2cccc(F)c2)c1 -1.29%, CC(C)(C)c1nc(C(=O)NCc2cccnc2)n2ccccc12 21.7%, CCC1(O)CCC12CCN(C(=O)c1ccco1)CC2 (stereo unspecified) 1.5%, O=C(c1cnc(N2CCOCC2)nc1)N1CCn2nc(C(O)C3CC3)cc2C1 (stereo unspecified) 1.78%, CN(Cc1cc(C2CC2)n[nH]1)C(=O)C(c1ccc(F)cc1)N(C)C (stereo unspecified) 6.93%, CN1CC2(CCCN(C3CCN(C(=O)c4cnccn4)CC3)C2)OC1=O (stereo unspecified) 0.1%, COc1ccc(OC)c(CNC(=O)CC2C(=O)NCCN2CC=C(C)C)c1 (stereo unspecified) 3.9%, O=C(NCc1noc(-c2cccs2)n1)[C@H]1CNC[C@H](C(=O)N2CCCC2)C1 11.9%, CSc1ccc(-c2nc3c([nH]2)CC(C)(C)CNC3=O)cc1 24.6%, Cc1nnc([C@@H]2CC(F)(F)CN2C(=O)c2conc2C)o1 -3.43%, Cn1ccnc1CN1CCN(c2nccc(-c3cccnc3)n2)CC1 -4.79%, O=C(O)C1CC2(CCN(C(=O)CCCn3ccnc3)CC2)CN1 (stereo unspecified) 91.5%, O=C(CC1CCN(C(=O)c2ccc(F)cc2)C1)NCc1ccccc1 (stereo unspecified) 4.51%, O=C1c2cnc(-c3cc4ccccc4o3)nc2OCCN1CC1CC1 15.2% [at 57.5 µM], CCC(NS(=O)(=O)c1ccc(C(=O)NC2CC2)cc1)c1cnn(C)c1 (stereo unspecified) 4.83%, Cc1cc(C(=O)N2CCCC3(C2)Nc2cccnc2NC3=NCc2ccccc2)nn1C (stereo unspecified) -3.72%, Cn1cccc1-c1noc(C2CCN(C(=O)CCCc3ccccc3)C2)n1 (stereo unspecified) 3.13%, OCCOCCn1cnc(-c2ccccc2)c1-c1ccccc1Cn1cccn1 -2.56%, CCC(NS(=O)(=O)c1cc(-n2cccn2)ccc1OC)C1CC(O)C1 (stereo unspecified) 2.68%, CCn1nc(C)c(-c2cc(C(=O)N3CCCCCCNC(=O)CC3)no2)c1C -1.3%, CCc1nc(-c2c3n(c(=O)n(CC(=O)OC)c2=O)CCCC3)no1 0.26%, O=C(CCc1cnccn1)N1CCC(CCC(=O)N2CCC(Cc3ccccc3)CC2)CC1 50.3%, O=C(c1cccc(OC2CN(CC3CC=CCC3)C2)c1)N1CCCC1 (stereo unspecified) -1.53%, CCn1c(-c2ccccc2)nn(CC(=O)NCc2ccsc2)c1=O 10.5%, Cc1noc(C)c1S(=O)(=O)N1CC(c2noc(C3CCCN3C)n2)C1 (stereo unspecified) -5.53%, CC(C)C(=O)N1CCc2[nH]nc(C(=O)NCCCc3ccccc3)c2C1 0.372%, CNCCN(C)C(=O)C1CCCN(C2CCN(C3Cc4ccccc4C3)CC2)C1 (stereo unspecified) -2.41%, O=C(Nc1ccc([C@H]2OCC(=O)N(C3CCOCC3)[C@@H]2CO)cc1)c1cnccn1 12.1% [at 57.5 µM], Cc1ccnn1CC(=O)N(Cc1ccncc1)Cc1cccc(OCCc2ccc(F)cc2)c1 29.4%, Cc1cccc(CNC(=O)C2CC(c3ccc(F)c(C)c3)CN(C(=O)c3ccccc3)C2)c1 (stereo unspecified) 56.6%, O=C(Cn1ccn2nc3c(c2c1=O)CCCCC3)NCc1ccccc1Cl -1.62%, O=C(COc1ccccc1)N1C[C@@H](CO)[C@H](c2ccccn2)C1 4.93%, O=C1NC(=NC2CCCCC2)C2(CCN(Cc3ccccc3)CC2)N1c1cc(F)cc(F)c1 -0.147%, COCC1CN(S(=O)(=O)Cc2cccc(F)c2)CC12CCNCC2 (stereo unspecified) -3.11%, CN1CCC(N2C[C@@H]3C[C@H]2C(=O)N(CC2CC2)c2ccccc2O3)CC1 7.73% [at 57.5 µM], Clc1ccccc1CNC[C@H]1Cn2ccnc2CO1 -0.618% [at 77.1 µM], O=C(c1cccs1)N1CCCN(c2cc(-c3ccc(F)cc3)[nH]n2)CC1 2.22%, CN1Cc2ccc(NCc3ccccc3)nc2C(C)(C(=O)Nc2ccccc2)C1 (stereo unspecified) 1.37% [at 57.5 µM], CN(C)CCNC(=O)c1ccnc(-c2nnc3ccc(N(C)c4ccccc4)nn23)c1 14.8% [at 57.5 µM], O=C(N[C@@H]1CCOC[C@H]1OCc1ccccn1)c1cccc(-n2cnnc2)c1 -0.914%, COC(=O)CNC(=O)c1cc(-c2ccc(Cl)cc2Cl)c2cnn(C)c2n1 8.3%, O=C1CO[C@H]2CN(Cc3ncc[nH]3)C[C@H]2N1Cc1ccc(F)cc1 6.17% [at 57.5 µM], O=C(CC1CCN(S(=O)(=O)c2ccc(F)cc2F)C1)NCc1ccccc1 (stereo unspecified) 1.72%, c1ccc(CNc2nc(-c3ccccc3)no2)cc1 -3.61%, CNC(=O)c1noc([C@@H]2CC(F)(F)CN2C(=O)CCOC)n1 -0.329%, O=C(C1CCCN1C(=O)C1CCCC1)N1CCC(N2Cc3ccccc3C2=O)CC1 (stereo unspecified) 52.2%, COCC1CCN(c2ccc(-c3nc(-c4ccccc4C)no3)cn2)C1 (stereo unspecified) 35.7%, COc1ccc(-c2ccccc2C(=O)NCC#N)nn1 -0.673% [at 57.5 µM], Cn1cccc1CN1CCC2(CC1)CNc1ccccc1[S+](=O)([O-])N2 7.23%, CCn1c(CO)nnc1C1CC(NC(=O)c2[nH]c3ccc(OC)cc3c2C)C1 (stereo unspecified) 13.2%, O=C1CCCN1CCCN1C(=O)[C@@H]2C[C@@H](O)CN2C2(CN(C3CCC(F)(F)CC3)C2)C1=O -3.88%, Cc1ccc(NC(=O)c2cc3c(s2)CN(C2CC2)C3)cc1 18.4%, O=C1COCC2(CN(c3ccc(C(F)(F)F)cn3)C2)CN1c1ccccc1F 23.2% [at 57.5 µM], O=C1c2cnc(-c3ccsc3)nc2OCCN1CC1CC1 47.5% [at 57.5 µM], COc1cccc(N2C(=O)NC(=NC3CCCCC3)C23CCN(CC2CC2)C3)c1 (stereo unspecified) 10.5%
